{
  "source": "patent US9408888B2",
  "about": "“High affinity bivalent helically constrained peptide against cancer” (COUNCIL OF SCIENTIFIC AND INDUSTRIAL RESEARCH, priority 2011, dated 2016)",
  "key": {"S100B": {"molecular_target": "T1, S100B (Homo sapiens, UniProt P04271)", "T1 sequence (P04271 1-92)": "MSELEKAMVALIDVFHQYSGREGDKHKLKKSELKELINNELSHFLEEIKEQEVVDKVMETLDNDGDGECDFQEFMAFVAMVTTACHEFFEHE", "assay": "Fluorescence anisotropy binding of N-terminal fluorescein labeled peptides to S100B", "excerpt": "FIG. 2. (A) Table of some representative peptides synthesized which respectively include pM-53 (SEQ ID No. 6), pBN-53 (SEQ ID No. 7), pBDC-53 (SEQ ID No. 8), pBM-TRTK (SEQ ID No. 2), pBDC-TRTK (two SEQ ID No. 2's cross-linked together with BMH), and pBBD-TRTK (SEQ ID No. 11) and their dissociation constants. Binding isotherm of branch dimeric SEQ ID No. 3 (i.e., SEQ ID No. 11) with (B) S-100B and (C) S100P and (D) branch dimeric SEQ ID No. 5 (i.e., SEQ ID No. 12) with S100B. Fluorescein labeled, 5 nM branch dimeric SEQ ID No. 3 (i.e., SEQ ID No. 11) or branch dimeric SEQ ID No. 5 (i.e., SEQ ID No. 12) was titrated with increasing concentrations of S100B or S100P in 50 mM Tris-HCl buffer, pH 7.5, containing 50 mM NaCl and 10 mM CaCl2 at ambient temperatures which was 25±1 degree C. Anisotropy was determined at each point. The each point is averaging of at least three independent experiments. The line is best fit to a single site binding equation given in description of the invention.\nBinding affinity of aib substituted p53 (SEQ ID No. 7) (and all other peptides) was estimated by fluorescence anisotropy using N-terminal fluorescein labeled peptides. […] Since S100B is a dimer, one possible way to enhance the binding is to synthesize a bivalent molecule, which can simultaneously bind to two subunits. […]"}, "B16F10 melanoma": {"tested_on": "B16F10 melanoma", "assay": "Syngenic mouse model of melanoma (implanted B16F10 tumor)", "assay_type": "in vivo, C57BL/6J mice"}, "[1]": {"tested_on": "melanoma and glioma cell lines", "assay": "Effect of the synthesized peptides on melanoma and glioma cell lines (apoptosis induction)", "assay_type": "cell-based", "conditions": "all melanoma and glioma cell lines tested"}, "SK-MEL5 cells [2]": {"tested_on": "SK-MEL5 cells", "assay": "Confocal fluorescence microscopy (phalloidin actin staining, cytochrome C, p53/mitotracker)", "assay_type": "cell-based", "conditions": "10 microM"}, "SK-MEL5 cells [3]": {"tested_on": "SK-MEL5 cells", "assay": "Flow cytometry with Annexin V and Propidium Iodide", "assay_type": "cell-based", "conditions": "10 microM"}, "SK-MEL5 cells [4]": {"tested_on": "SK-MEL5 cells", "assay": "Phase contrast microscopy of SK-MEL5 cells (shape change, blebbing, apoptosis)", "assay_type": "cell-based", "excerpt": "FIG. 3. Phase contrast microscopy of SK-MEL5 cells (A) 2 hrs after treatment with 10 microM SEQ ID No. 10; (B) 18 hrs after treatment with 20 microM branch dimeric SEQ ID No. 5 (i.e., SEQ ID No. 12); (C) 2 hr after treatment with branch dimeric SEQ ID No. 3 (i.e., SEQ ID No. 11) (without the cell penetration tag) and (D) control.\nFIG. 6. (A) Phase contrast microscopy of SK-MEL5 cells (Upper panel) 10 microM SEQ ID No. 10 with DR6 tags at two branches (Lower panel), and 10 microM pBBDR-TRTK (i.e., SEQ ID No. 10), pre-treated with 10 microM pifithrin-micro, 1 hr after treatment (Upper panel). (B) Confocal microscopic images of merged p53 (green) and mitotracker (red), Top untreated and bottom, 1 h after treatment with SEQ ID No. 10.\nThe effect of all the synthesized peptides on several melanoma cell lines which are known to over-express S100B was investigated.\nGiven the rapidity of apoptosis initiation, the examination of the recently reported direct mitochondrial translocation pathway was also done by the method if Vaseva and Moll, 2009. It has been reported that a small molecule pifithrin-micro blocks this pathway without affecting the canonical transcription-dependent pathway of p53 initiated apoptosis and a close analog, pifithrin-α blocks the canonical pathway without affecting the direct mitochondrial pathway (Strom et al., 2006). […] The direct translocation of p53 to mitochondria was also verified by confocal microscopy (FIG. 6(B)). Thus, early shape change of the cells involving actin cytoskeleton may be a p53 independent effect, hypothetically as a result of direct role of S100B on actin cytoskeleton."}},
  "note": "For some of these results: At least one peptide structure holds a part that was inferred or is arguable (an end, a ring closure or a residue). At least one compound was matched to its structure with a doubt left. Where a SMILES comes first, the peptide text is derived from it. Bridges are numbered along the chain shown (N, C = ends). Roman numbers before positions name the chains, in order. [ ]: non-standard residue; d: D form. Aib = CC(C)(N)C(=O)O; Ahx = NCCCCCC(=O)O",
  "data": [
    {"smiles": "CC[C@H](C)[C@H](NC(=O)[C@H](CCCCN)NC(=O)[C@@H](NC(=O)[C@H](CCCNC(=N)N)NC(=O)[C@@H](NC(=O)c1ccc2c(c1)C(=O)OC21c2ccc(O)cc2Oc2cc(O)ccc21)[C@@H](C)O)[C@@H](C)O)C(=O)N[C@@H](CC(=O)O)C(=O)N[C@@H](Cc1c[nH]c2ccccc12)C(=O)NC(C)(C)C(=O)N[C@@H](CCCCN)C(=O)N[C@H](C(=O)N[C@@H](CC(C)C)C(=O)NC(C)(C)C(=O)N[C@@H](CCCCN)C(=O)NCCCCCC(N)=O)[C@@H](C)CC", "note": "[SEQ ID No. 3, TRTKIDWBKILBKAhx]", "values": [
      {"measurement": "Kd", "setting": "S100B; fluorescence anisotropy, 50 mM Tris-HCl pH 7.5, 50 mM NaCl, 10 mM CaCl2, 25 degree C, read-out: Kd (dissociation constant) for S100B", "value": "~300", "unit": "nM"}
    ]},
    {"smiles": "CC[C@H](C)[C@H](NC(=O)[C@H](CCCCN)NC(=O)[C@@H](NC(=O)[C@H](CCCNC(=N)N)NC(=O)[C@@H](NC(=O)[C@@H](CCCNC(=N)N)NC(=O)[C@@H](CCCNC(=N)N)NC(=O)[C@@H](CCCNC(=N)N)NC(=O)[C@@H](CCCNC(=N)N)NC(=O)[C@@H](CCCNC(=N)N)NC(=O)[C@H](N)CCCNC(=N)N)[C@@H](C)O)[C@@H](C)O)C(=O)N[C@@H](CC(=O)O)C(=O)N[C@@H](Cc1c[nH]c2ccccc12)C(=O)NC(C)(C)C(=O)N[C@@H](CCCCN)C(=O)N[C@H](C(=O)N[C@@H](CC(C)C)C(=O)NC(C)(C)C(=O)N[C@@H](CCCCN)C(=O)NCCCCCC(=O)NCCCC[C@H](NC(=O)CCCCCNC(=O)[C@H](CCCCN)NC(=O)C(C)(C)NC(=O)[C@H](CC(C)C)NC(=O)[C@@H](NC(=O)[C@H](CCCCN)NC(=O)C(C)(C)NC(=O)[C@H](Cc1c[nH]c2ccccc12)NC(=O)[C@H](CC(=O)O)NC(=O)[C@@H](NC(=O)[C@H](CCCCN)NC(=O)[C@@H](NC(=O)[C@H](CCCNC(=N)N)NC(=O)[C@@H](NC(=O)[C@@H](CCCNC(=N)N)NC(=O)[C@@H](CCCNC(=N)N)NC(=O)[C@@H](CCCNC(=N)N)NC(=O)[C@@H](CCCNC(=N)N)NC(=O)[C@@H](CCCNC(=N)N)NC(=O)[C@H](N)CCCNC(=N)N)[C@@H](C)O)[C@@H](C)O)[C@@H](C)CC)[C@@H](C)CC)C(N)=O)[C@@H](C)CC", "note": "[SEQ ID No. 10, ^DR6 TRTKIDWBKILBKAhxKAhxKBLIKBWDIKTRT-^DR6]", "values": [
      {"measurement": "PCNA growth marker in residual tumor mass (immuno-histochemistry)", "setting": "B16F10 melanoma; 50 mg/kg i.v.", "value": "complete loss"},
      {"measurement": "tumor growth", "setting": "B16F10 melanoma; 50 mg/kg i.v. daily, up to 8 days (maximum tested)", "value": "completely inhibited"},
      {"measurement": "histopathology of tumor sections", "setting": "B16F10 melanoma; 50 mg/kg i.v., compared to untreated tumors", "value": "large areas devoid of live cells"},
      {"measurement": "p53 staining of tumor sections", "setting": "B16F10 melanoma; after one treatment, 50 mg/Kg, versus control tumor section", "value": "significant enhancement"},
      {"measurement": "apoptosis induction compared with all the peptides", "setting": "[1]", "value": "induces apoptosis at lowest concentrations among all the peptides"},
      {"measurement": "cytochrome C localisation (apoptotic nature of cell death)", "setting": "SK-MEL5 cells [2]; 2 h", "value": "release of cytochrome C from mitochondria"},
      {"measurement": "time to cell shape change and actin fiber reorganization", "setting": "SK-MEL5 cells [2]; phalloidin staining", "value": "≤ 30", "unit": "min"},
      {"measurement": "cells apoptotic (annexin V)", "setting": "SK-MEL5 cells [3]; 2 hrs", "value": 49, "unit": "%"},
      {"measurement": "cells necrotic", "setting": "SK-MEL5 cells [3]; 2 hrs", "value": 11, "unit": "%"},
      {"measurement": "cells apoptotic (annexin V)", "setting": "SK-MEL5 cells [3]; 6 hrs", "value": 57, "unit": "%"},
      {"measurement": "cells necrotic", "setting": "SK-MEL5 cells [3]; 6 hrs", "value": 14, "unit": "%"},
      {"measurement": "time to typical apoptotic changes such as blebbing", "setting": "SK-MEL5 cells [4]; 10 μM, SK-Mel-5", "value": "≤ 1", "unit": "h"},
      {"measurement": "cell entry", "setting": "SK-MEL5 cells [4]; SK-MEL-5", "value": "enters the cell within a short period of time"}
    ]},
    {"smiles": "CC[C@H](C)[C@H](NC(=O)[C@H](CCCCN)NC(=O)C(C)(C)NC(=O)[C@H](C)NC(=O)[C@H](CC(=O)O)NC(=O)[C@H](C)NC(=O)[C@H](CCCCN)NC(=O)[C@@H](NC(=O)[C@H](CCCNC(=N)N)NC(=O)[C@@H](N)[C@@H](C)O)[C@@H](C)O)C(=O)N[C@@H](CC(C)C)C(=O)NC(C)(C)C(=O)N[C@@H](CCCCN)C(=O)NCCCCCC(=O)NCCCC[C@H](NC(=O)CCCCCNC(=O)[C@H](CCCCN)NC(=O)C(C)(C)NC(=O)[C@H](CC(C)C)NC(=O)[C@@H](NC(=O)[C@H](CCCCN)NC(=O)C(C)(C)NC(=O)[C@H](C)NC(=O)[C@H](CC(=O)O)NC(=O)[C@H](C)NC(=O)[C@H](CCCCN)NC(=O)[C@@H](NC(=O)[C@H](CCCNC(=N)N)NC(=O)[C@@H](N)[C@@H](C)O)[C@@H](C)O)[C@@H](C)CC)C(N)=O", "note": "[SEQ ID No. 12, TRTKADABKILBKAhxKAhxKBLIKBADAKTRT-(I5A,W7A)] (I: H-TRTKADA[Aib]KIL[Aib]K[Ahx]K-NH2 / II: H-TRTKADA[Aib]KIL[Aib]K[Ahx]; amide I:15-II:C; N-terminus assumed)", "values": [
      {"measurement": "lower affinity of double mutant peptide for S100B", "setting": "S100B; double mutant (Ile-5, Trp-7) versus parent branched dimer", "value": "about 20 fold"},
      {"measurement": "apoptotic effect", "setting": "SK-MEL5 cells [4]; 20 microM, 18 hrs, SK-MEL5", "value": "does not show any apoptotic effect"}
    ]}
  ]
}
